Reference: patent US11078259B2, “Methods and compositions for promoting thermogenic potential” (Joslin Diabetes Center, Inc., priority 2015, dated 2021)
At least one compound was matched to its structure with a doubt left.

Legend:
[1] = tested on: differentiated human brown adipocytes (hBA); experiment: Oxygen consumption rate (Seahorse) after forskolin stimulation; type: cell-based; settings: Sub1 and Sub2, 10 uM forskolin for 4 h
[2] = tested on: differentiated human white adipocytes (hWA); experiment: as above; type: cell-based; settings: Sub1 and Sub2, 10 uM forskolin for 4 h

With `C=C[C@@]1(C)CC(=O)[C@]2(O)[C@@]3(C)[C@@H](O)CCC(C)(C)[C@@H]3[C@H](O)[C@H](OC(C)=O)[C@@]2(C)O1` [forskolin] the “oxygen consumption rate response to forskolin” value [1] was “increasing oxygen consumption rate” and the “oxygen consumption rate response to forskolin” value [2] was “but not white”.
